PubChem BioAssay AID743448 | Peter MacCallum Cancer Centre | 2014

Aim: 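Test whether knock-downs sensitising to vorinostat hold across several colon lines but not etoposide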 (follow-up of hits)
System: four human colon cancer cell lines: HCT116-VR (vorinostat-resistant HCT116 derivative), SW480, SW620 and LIM1215
Reagents: siRNA pool against human genes, 40 nM siRNA pool
Timing: drug added two days after transfection, read one day later
Conditions: vorinostat 2.5 µM on one half of each plate, etoposide 5 µM on the other half
Cell line and drug panel: LIM1215 cells with vorinostat
Read-out: 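Caspase luminescence and viability fluorescence, each expressed relative to mock transfection and also as robust z-scores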
Reading the numbers: caspase ratio to mock: higher = more caspase activity than mock; viability ratio to mock: higher = more live cells than mock
Hit rule: 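Hit means caspase ratio to mock at least 1.6, or viability ratio to mock at most 0.75; wells with strong death in the absence of drug get no call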
Calls: active = caspase or viability hit in this panel; inactive = no change, or unhealthy well
Shown is an unselected part of the 106 reagents, under one of the conditions tested. 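Calls are per line and drug panel including etoposide, not vorinostat-specific; gene picks needed hits in two or more extra lines with vorinostat versus etoposide.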 Not all columns of the deposit are shown.

| gene symbol | caspase ratio to mock | viability ratio to mock | call |
| --- | --- | --- | --- |
| INTS6L (integrator complex subunit 6 like) | 2.03 | 0.81 | inactive |
| DNTTIP2 (deoxynucleotidyltransferase terminal interacting protein 2) | 1.37 | 1 | inactive |
| AMDHD2 (amidohydrolase domain containing 2) | 2.38 | 0.86 | active |
